The list shows only some results of the screen, not a fair sample: it gathers tests that were run many times, whatever their T/C, doses with no T/C, and many T/C values between a quarter and a half above the control. Other doses and runs of a compound stand elsewhere. T/C is the treated group as % of the vehicle group. Some entries give survivors of the animals treated and no T/C: the source holds a T/C of zero for them, seemingly a mark for toxic or unscored doses. Some survivor counts are full or nearly so, which does not show that the dose was tolerated: the source hardly ever lists a survival T/C far under the control, and the zero likely stands for such cases as well. Survivors were counted at the toxicity check, usually on the fifth day, unless a day is given; later deaths do not show. Schedules are NCI's codes, read here as Q, the interval in days (D) or hours (H), X, the number of doses. Brackets with × stand for listed records that agree. Where survival is the endpoint, the PubChem record calls one and a half times the control and up active, and a quarter to a half above the control has no call in these data; cut-offs in other NCI protocols can differ. Some doses were run more than once; the results are listed from low to high. Some T/C values carry the count of animals alive at the toxicity check (mostly the fifth day); where none is given, no animal had died by that day.
System: P388 leukemia ip, CD2F1 mice, survival T/C
Test: NCI In Vivo Anticancer Drug Screen. Data for tumor model P388 Leukemia (intraperitoneal) in CD2F1 (CDF1) mice
Details: T/C endpoint: median survival time, higher T/C = longer survival
[1] = dose: 200.0 mg/kg/injection, schedule: Q01DX009 (ip), vehicle: saline with Tween-80
[2] = dose: 100.0 mg/kg/injection, schedule: Q01DX009 (ip), vehicle: water
[3] = dose: 200.0 mg/kg/injection, schedule: Q04DX002 (ip), vehicle: Klucel (hydroxypropylcellulose) (HPC)
[4] = dose: 400.0 mg/kg/injection, schedule: Q04DX002 (ip), vehicle: Klucel (hydroxypropylcellulose) (HPC)
[5] = dose: 240.0 mg/kg/injection, schedule: Q01DX005 (ip), vehicle: Klucel (hydroxypropylcellulose) (HPC)
[6] = dose: 50.0 mg/kg/injection, schedule: Q01DX009 (ip), vehicle: saline
[7] = dose: 100.0 mg/kg/injection, schedule: Q01DX009 (ip), vehicle: saline
[8] = dose: 200.0 mg/kg/injection, schedule: Q01DX009 (ip), vehicle: saline
[9] = dose: 50.0 mg/kg/injection, schedule: Q01DX009 (ip), vehicle: saline with Tween-80
[10] = dose: 100.0 mg/kg/injection, schedule: Q01DX009 (ip), vehicle: saline with Tween-80
[11] = dose: 8.0 mg/kg/injection, schedule: Q01DX009 (ip), vehicle: saline with Tween-80
[12] = dose: 240.0 mg/kg/injection, schedule: Q01DX005 (ip), vehicle: saline with Tween-80
[13] = dose: 25.0 mg/kg/injection, schedule: Q01DX009 (ip), vehicle: saline with Tween-80
[14] = dose: 200.0 mg/kg/injection, schedule: Q01DX005 (ip), vehicle: saline with Tween-80

With `O=NN(c1ccccc1)c1ccc([N+](=O)[O-])cc1` the survivor count [1] was 6 of 6.

With `O=C1c2ccccc2C(=O)c2c(NCCNCCNCCO)ccc(NCCNCCNCCO)c21` the T/C [2] was 136 % of control, the survivor count [2] was 3 of 6 and the survivor count (dose: 128.0 mg/kg/injection, schedule: Q01DX009 (ip), vehicle: acid diluted with saline) was 2 of 8. The survivor count (dose: 200.0 mg/kg/injection, schedule: Q01DX009 (ip), vehicle: water) was 0 of 6 and the survivor count (dose: 400.0 mg/kg/injection, schedule: Q01DX009 (ip), vehicle: water) was 0 of 6.

In the case of `COC(=O)c1cc(=O)n(-c2cccc(OC)c2)c(SC)n1`, the survivor count [3] was 3 of 6 and the survivor count [4] was 0 of 6.

With `O=C(O)c1ccccc1.O=C(O)c1ccccc1.O=C(O)c1ccccc1.O=C(O)c1ccccc1.[Cu].[Cu]` the survivor count (dose: 30.0 mg/kg/injection, schedule: Q01DX005 (ip), vehicle: Klucel (hydroxypropylcellulose) (HPC)) was 2 of 6, the survivor count (dose: 60.0 mg/kg/injection, schedule: Q01DX005 (ip), vehicle: Klucel (hydroxypropylcellulose) (HPC)) was 0 of 6 and the survivor count (dose: 120.0 mg/kg/injection, schedule: Q01DX005 (ip), vehicle: Klucel (hydroxypropylcellulose) (HPC)) was 0 of 6. The survivor count [5] was 0 of 6.

`CC(C)N=C(Cc1ccccc1)NC(C)(C)C` was tested, and the survivor count [6] was 0 of 6, the survivor count [7] was 0 of 6 and the survivor count [8] was 0 of 6.

With `CCN(CC)Cc1c(C)[nH]c2ccc3c(c2c1=O)CCCC3` the survivor count [5] was 0 of 6.

With `COc1cc(NC(C)CN(CC(C)C)C(C)C)c2ncccc2c1` (stereo unspecified) the survivor count (dose: 200.0 mg/kg/injection, schedule: Q01DX005 (ip), vehicle: saline) was 1 of 5.

In the case of `Fc1ccc(N2C(Cl)(Cl)C23c2ccccc2-c2ccccc23)cc1`, the T/C [9] was 132 % of control and the T/C [10] was 131 % of control.

`CCSC(=NC)Nc1ccc(Oc2ccc(Cl)cc2)cc1` was tested, and the survivor count (dose: 200.0 mg/kg/injection, schedule: Q01DX005 (ip), vehicle: Klucel (hydroxypropylcellulose) (HPC)) was 0 of 5.

With `CC(C)(O)/C=C/C(=O)[C@](C)(O)[C@H]1[C@H](O)C[C@@]2(C)[C@@H]3CC=C4[C@@H](C=C(O)C(=O)C4(C)C)[C@]3(C)C(=O)C[C@]12C` the survivor count (dose: 2.0 mg/kg/injection, schedule: Q01DX010 (ip), vehicle: saline) was 1 of 6, the survivor count (dose: 4.0 mg/kg/injection, schedule: Q01DX005 (ip), vehicle: water) was 0 of 6 and the survivor count (dose: 8.0 mg/kg/injection, schedule: Q01DX005 (ip), vehicle: water) was 0 of 6.

For `CC1=CC(=O)c2c(O)cccc2C1=O`, the survivor count (dose: 8.0 mg/kg/injection, schedule: Q01DX009 (ip), vehicle: Klucel (hydroxypropylcellulose) (HPC)) was 2 of 6, the survivor count [11] was 1 of 6 and the survivor count (dose: 16.0 mg/kg/injection, schedule: Q01DX009 (ip), vehicle: Klucel (hydroxypropylcellulose) (HPC)) was 0 of 6 (2×). The survivor count (dose: 16.0 mg/kg/injection, schedule: Q01DX009 (ip), vehicle: saline with Tween-80) was 0 of 6 and the survivor count (dose: 32.0 mg/kg/injection, schedule: Q01DX009 (ip), vehicle: Klucel (hydroxypropylcellulose) (HPC)) was 0 of 6.

With `COc1ccc(C2C3=C(CC(C)(C)CC3=O)Oc3cc4c(cc32)OCO4)cc1` (stereo unspecified) the survivor count [12] was 6 of 6.

For `COc1cccc2c1C(=O)c1c(O)c3c(c(O)c1C2=O)C[C@@](O)(C(C)=O)C[C@@H]3OC1CC(NC(=O)C(N)CC(C)C)C(O)C(C)O1` (stereo partly specified), the T/C (dose: 3.12 mg/kg/injection, schedule: Q04DX003 (ip), vehicle: saline) was 137 % of control, the T/C (dose: 6.25 mg/kg/injection, schedule: Q04DX003 (ip), vehicle: saline) was 130 % of control and the T/C (dose: 12.5 mg/kg/injection, schedule: Q04DX003 (ip), vehicle: saline) was 127 and 140 % of control. The T/C (dose: 50.0 mg/kg/injection, schedule: Q04DX003 (ip), vehicle: saline) was 144 % of control [5 of 6 alive on day 9].

`COc1cc(OC)c(OC)cc1/C=C\c1ccc2ccccc2[n+]1C` was tested, and the T/C (dose: 3.12 mg/kg/injection, schedule: Q01DX009 (ip), vehicle: distilled water + Tween-80 + alcohol) was 127 % of control, the T/C (dose: 6.25 mg/kg/injection, schedule: Q01DX009 (ip), vehicle: distilled water + Tween-80 + alcohol) was 132 % of control and the T/C (dose: 12.5 mg/kg/injection, schedule: Q01DX009 (ip), vehicle: distilled water + Tween-80 + alcohol) was 144 % of control. For the same molecule, the T/C [13] was 127 % of control and the T/C [9] was 133 % of control [4 of 5 alive].

For `Cc1cc(OP2(=O)Nc3cccc4cccc(c34)N2)ccc1Cl`, the survivor count [14] was 6 of 6.

With `O=S(=O)(OCCCl)C(F)(F)F` the survivor count (dose: 6.25 mg/kg/injection, schedule: Q01DX009 (ip), vehicle: saline with Tween-80) was 6 of 6, the survivor count (dose: 12.5 mg/kg/injection, schedule: Q01DX009 (ip), vehicle: saline with Tween-80) was 1 of 6 and the survivor count [13] was 0 of 6. The survivor count [9] was 0 of 6, the survivor count [10] was 0 of 6 and the survivor count [1] was 0 of 6.

With `COc1cc(/C=C/C(NC(C)=O)c2cccc(O)c(=O)c2)cc(OC)c1OC` (stereo unspecified) the survivor count (dose: 50.0 mg/kg/injection, schedule: Q01DX009 (ip), vehicle: Klucel (hydroxypropylcellulose) (HPC)) was 6 of 6.

`CCCCCCCC(=O)OCC(=O)[C@]1(O)Cc2c(O)c3c(c(O)c2[C@@H](OC2CC(N)C(O)C(C)O2)C1)C(=O)c1c(OC)cccc1C3=O` (stereo partly specified) was tested, and the T/C (dose: 0.5 mg/kg/injection, schedule: Q01DX009 (ip), vehicle: saline with Tween-80) was 136 % of control, the T/C (dose: 1.0 mg/kg/injection, schedule: Q01DX009 (ip), vehicle: saline with Tween-80) was 136 % of control and the survivor count [11] was 10 of 10. The survivor count (dose: 8.0 mg/kg/injection, schedule: Q01DX009 (ip), vehicle: water) was 5 of 6.

With `CN(C)C/C=C(/c1ccc(Br)cc1)c1cccnc1` the survivor count [6] was 6 of 6, the survivor count [7] was 6 of 6 and the survivor count [8] was 0 of 6.

In the case of `CCCCOC(OCCCC)C(C)N` (stereo unspecified), the survivor count (dose: 100.0 mg/kg/injection, schedule: Q01DX005 (ip), vehicle: saline with Tween-80) was 0 of 5 and the survivor count [14] was 0 of 5.

`COc1ccc2nc3cc(Cl)ccc3c(NCCCNCCCCNCCCNc3c4ccc(Cl)cc4nc4ccc(OC)cc34)c2c1` was tested, and the T/C (dose: 5.0 mg/kg/injection, schedule: Q01DX009 (ip), vehicle: other) was 141 % of control, the survivor count (dose: 10.0 mg/kg/injection, schedule: Q01DX009 (ip), vehicle: other) was 5 of 6 and the survivor count (dose: 20.0 mg/kg/injection, schedule: Q01DX009 (ip), vehicle: other) was 2 of 6.

With `CC1=[N+]([O-])[N+]([O-])=C(C)C1=O` the survivor count (dose: 25.0 mg/kg/injection, schedule: Q01DX009 (ip), vehicle: Klucel (hydroxypropylcellulose) (HPC)) was 1 of 6.

With `C[Si](C)(CCCNCCN)O[Si](C)(C)CCCNCCN` the survivor count (dose: 120.0 mg/kg/injection, schedule: Q01DX005 (ip), vehicle: saline with Tween-80) was 0 of 6 and the survivor count [12] was 0 of 6.

For `c1ccc2cc(OCC(COc3ccc4ccccc4c3)(COc3ccc4ccccc4c3)COc3ccc4ccccc4c3)ccc2c1`, the survivor count (dose: 15.0 mg/kg/injection, schedule: Q01DX009 (ip), vehicle: saline with Tween-80) was 6 of 6 and the survivor count (dose: 30.0 mg/kg/injection, schedule: Q01DX009 (ip), vehicle: saline with Tween-80) was 6 of 6.

`O=S(=O)(c1ccccc1)N1OC1c1ccccc1` (stereo unspecified) was tested, and the survivor count [1] was 5 of 6.

In the case of `Cc1c2cccc(Sc3ccccc3)c2c2c3c(cccc13)[S+](c1ccccc1)C2` (stereo unspecified), the survivor count [13] was 6 of 6, the survivor count [9] was 0 of 6 and the survivor count [10] was 0 of 6.

In the case of `O=C(CC(CC(O)(c1ccccc1)c1ccccc1)c1ccccc1)Nc1ccccc1` (stereo unspecified), the survivor count (dose: 100.0 mg/kg/injection, schedule: Q04DX002 (ip), vehicle: Klucel (hydroxypropylcellulose) (HPC)) was 4 of 6, the survivor count [3] was 6 of 6 and the survivor count [4] was 6 of 6.

For `CNC1c2ccccc2CCC1O` (stereo unspecified), the survivor count [4] was 0 of 6.

— PubChem BioAssay AID330 (DTP/NCI, 2004)
